Results are given in words; binding and its absence hold for the method and conditions named. Some entries that bind do so weakly or less than the wild type.
What was measured:
[1] = molecular target: EGF + sEGFR-MMB complex (human) (UniProt P01133); assay: phage ELISA, coated sEGFR-MMB with EGF added in excess
[2] = molecular target: sEGFR-MMB (dimeric soluble EGFR ectodomain mimetibody) (human); assay: phage ELISA, coated sEGFR-MMB
[3] = molecular target: sEGFR-MMB (dimeric soluble EGFR ectodomain mimetibody) (human); assay: phage ELISA, sEGFR-MMB passively coated
[4] = molecular target: biotinylated sEGFR-MMB (human); assay: phage ELISA, biotinylated sEGFR-MMB captured on streptavidin
[5] = molecular target: sEGFR-MMB (dimeric soluble EGFR ectodomain mimetibody) (human); assay: phage ELISA (FIG. 7)
[6] = molecular target: sEGFR-MMB (dimeric soluble EGFR ectodomain mimetibody) (human); assay: phage ELISA on passively coated sEGFR-MMB [A]
[7] = molecular target: biotinylated sEGFR-MMB (human); assay: phage ELISA, b-EGFR-MMB captured on streptavidin [C]
[8] = molecular target: biotinylated sEGFR-His6 (human) (UniProt P00533); assay: phage ELISA, biotinylated sEGFR-His6 captured on streptavidin
[9] = molecular target: biotinylated sEGFR-His6 (human) (UniProt P00533); assay: phage ELISA, b-EGFR-His captured on streptavidin [C]
[10] = molecular target: biotinylated sEGFR-His6 (human) (UniProt P00533); assay: phage ELISA (FIG. 7); sEGFR-His6 biotinylated and captured on streptavidin by Table 8

The chains behind the UniProt entries cited, without tags or fusion partners. Where a name states a change or a piece, a line headed by the entry shows the natural chain unless it says otherwise.
UniProt P01133: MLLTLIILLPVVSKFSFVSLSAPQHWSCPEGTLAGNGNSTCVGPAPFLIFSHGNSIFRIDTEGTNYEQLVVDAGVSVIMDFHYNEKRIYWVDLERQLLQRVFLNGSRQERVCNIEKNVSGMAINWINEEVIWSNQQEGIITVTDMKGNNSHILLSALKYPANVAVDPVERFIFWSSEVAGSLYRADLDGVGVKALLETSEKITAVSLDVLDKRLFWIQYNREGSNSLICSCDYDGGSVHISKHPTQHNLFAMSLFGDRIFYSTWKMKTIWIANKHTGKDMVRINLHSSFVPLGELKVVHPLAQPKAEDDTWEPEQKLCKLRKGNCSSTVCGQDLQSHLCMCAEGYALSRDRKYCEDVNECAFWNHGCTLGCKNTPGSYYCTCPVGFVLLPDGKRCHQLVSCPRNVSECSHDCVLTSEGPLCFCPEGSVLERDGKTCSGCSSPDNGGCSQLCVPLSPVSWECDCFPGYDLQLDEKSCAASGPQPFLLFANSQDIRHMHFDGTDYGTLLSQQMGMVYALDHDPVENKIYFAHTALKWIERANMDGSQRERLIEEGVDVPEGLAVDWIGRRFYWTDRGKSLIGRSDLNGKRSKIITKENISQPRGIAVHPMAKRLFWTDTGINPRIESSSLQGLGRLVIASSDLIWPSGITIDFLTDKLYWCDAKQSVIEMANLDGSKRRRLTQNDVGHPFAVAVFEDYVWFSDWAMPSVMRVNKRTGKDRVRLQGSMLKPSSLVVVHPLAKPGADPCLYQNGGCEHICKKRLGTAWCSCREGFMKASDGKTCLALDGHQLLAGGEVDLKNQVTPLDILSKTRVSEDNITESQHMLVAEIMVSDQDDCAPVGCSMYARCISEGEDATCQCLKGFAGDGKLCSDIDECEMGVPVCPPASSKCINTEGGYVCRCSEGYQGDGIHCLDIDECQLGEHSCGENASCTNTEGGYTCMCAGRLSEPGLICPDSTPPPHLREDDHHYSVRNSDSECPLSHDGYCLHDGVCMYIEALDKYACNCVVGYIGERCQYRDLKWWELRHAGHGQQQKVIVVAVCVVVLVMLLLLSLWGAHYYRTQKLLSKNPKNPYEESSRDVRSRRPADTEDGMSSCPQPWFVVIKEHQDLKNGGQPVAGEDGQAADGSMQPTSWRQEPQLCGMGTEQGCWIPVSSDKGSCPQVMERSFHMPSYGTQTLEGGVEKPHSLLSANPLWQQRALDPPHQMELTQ

Measured: binding

AGHFYPTKTPGYGG (peptide, not shown: large carriers) [phage P191 (pIII CNL1-11)]
binds: [1]

GGGTDCVIFGLETYCLRGGGSGGSGG (peptide, not shown: large carriers) [phage P173 (pIX S18)]
binds: [2] | [3] | [1] | [4]

AGSYYWGYTVDIRRGG (peptide, not shown: large carriers) [phage P193 (pIII CNL1-11)]
binds: [1]

AGAASRALWAFNSDGG (peptide, not shown: large carriers) [phage P192 (pIII CNL1-11)]
binds: [1]

GGGLPDDSLPELICKVRGGGGSGGSGG (peptide, not shown: large carriers) [phage P175 (pIX S15)]
binds: [5] | [3] | [6] | [4] | [7]

GGGSGCLDALWQCVYGGGSGGSGG (peptide, not shown: large carriers) [phage P174 (pIX S16)]
not listed: [1] | [2]
binds: all other assays above
